The target in test [1] is T1, RAD21 (UniProt O60216).
T1 sequence (looked up): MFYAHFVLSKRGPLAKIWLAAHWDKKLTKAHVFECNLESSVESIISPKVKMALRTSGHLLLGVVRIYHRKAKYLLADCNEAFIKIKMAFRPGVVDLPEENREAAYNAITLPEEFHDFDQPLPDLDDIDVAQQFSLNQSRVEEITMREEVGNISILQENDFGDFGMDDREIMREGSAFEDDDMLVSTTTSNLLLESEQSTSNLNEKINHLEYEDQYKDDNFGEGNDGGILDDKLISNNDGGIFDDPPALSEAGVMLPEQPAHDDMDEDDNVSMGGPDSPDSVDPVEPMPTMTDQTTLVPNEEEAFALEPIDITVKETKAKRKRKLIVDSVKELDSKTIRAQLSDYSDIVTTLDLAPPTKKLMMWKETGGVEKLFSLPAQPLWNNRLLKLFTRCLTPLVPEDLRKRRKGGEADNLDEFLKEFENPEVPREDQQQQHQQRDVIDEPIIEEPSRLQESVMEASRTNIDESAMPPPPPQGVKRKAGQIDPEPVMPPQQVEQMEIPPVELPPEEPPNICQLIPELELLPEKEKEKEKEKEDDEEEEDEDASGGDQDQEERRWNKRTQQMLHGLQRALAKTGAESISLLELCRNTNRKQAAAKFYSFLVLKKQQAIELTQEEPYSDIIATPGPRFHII
The test is described as follows: anti-FLAG co-immunoprecipitation from HEK293 lysates, Western blot.

Test [2] has as its target T1, RAD21. Kind of test: co-immunoprecipitation: anti-FLAG IP from lysates of HEK293 cells transfected with FLAG-STAG3, Western blot IB:RAD21 (endogenous RAD21).
Test [3] deals with T2, SMC1A (UniProt Q14683).
T2 sequence (looked up): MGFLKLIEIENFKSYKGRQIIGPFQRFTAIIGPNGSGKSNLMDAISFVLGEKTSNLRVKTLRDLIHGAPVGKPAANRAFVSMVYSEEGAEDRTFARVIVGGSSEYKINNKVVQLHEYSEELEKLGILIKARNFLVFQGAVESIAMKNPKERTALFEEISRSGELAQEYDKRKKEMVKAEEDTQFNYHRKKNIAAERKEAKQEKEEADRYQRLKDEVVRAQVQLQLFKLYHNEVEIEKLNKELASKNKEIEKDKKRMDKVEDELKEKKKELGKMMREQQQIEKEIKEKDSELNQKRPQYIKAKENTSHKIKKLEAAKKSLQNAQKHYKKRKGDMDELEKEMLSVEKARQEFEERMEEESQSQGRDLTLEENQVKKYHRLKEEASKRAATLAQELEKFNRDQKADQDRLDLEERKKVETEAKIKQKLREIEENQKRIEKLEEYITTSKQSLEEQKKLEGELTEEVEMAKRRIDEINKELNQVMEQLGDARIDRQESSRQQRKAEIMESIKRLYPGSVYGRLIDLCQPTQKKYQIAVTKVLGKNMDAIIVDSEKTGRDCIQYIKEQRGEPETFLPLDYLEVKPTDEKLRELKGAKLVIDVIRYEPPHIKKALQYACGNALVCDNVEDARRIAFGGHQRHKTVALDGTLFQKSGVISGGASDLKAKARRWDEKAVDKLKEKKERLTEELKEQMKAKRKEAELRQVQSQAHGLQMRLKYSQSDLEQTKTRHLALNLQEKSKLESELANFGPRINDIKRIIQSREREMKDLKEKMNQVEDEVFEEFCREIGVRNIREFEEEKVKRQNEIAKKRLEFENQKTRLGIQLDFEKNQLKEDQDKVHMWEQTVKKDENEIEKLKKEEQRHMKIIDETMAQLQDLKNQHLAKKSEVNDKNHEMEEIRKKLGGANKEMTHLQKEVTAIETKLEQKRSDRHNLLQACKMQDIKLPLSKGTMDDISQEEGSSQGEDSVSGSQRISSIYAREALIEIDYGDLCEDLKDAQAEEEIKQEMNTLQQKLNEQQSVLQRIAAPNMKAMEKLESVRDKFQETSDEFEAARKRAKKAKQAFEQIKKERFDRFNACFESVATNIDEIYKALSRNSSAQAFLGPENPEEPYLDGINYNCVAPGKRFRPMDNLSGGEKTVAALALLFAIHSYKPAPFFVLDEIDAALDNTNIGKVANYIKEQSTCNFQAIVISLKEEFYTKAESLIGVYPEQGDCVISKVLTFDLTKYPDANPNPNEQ
Kind of test: anti-FLAG co-immunoprecipitation from HEK293 lysates, Western blot. (In western blotting, separated proteins are transferred to a membrane and probed.)

The target in test [4] is T2, SMC1A. The test is described as follows: co-immunoprecipitation: anti-FLAG IP from lysates of HEK293 cells transfected with FLAG-STAG2, Western blot IB:SMC1 (endogenous SMC1).
In test [5] the target is T2, SMC1A. The test is described as follows: anti-FLAG co-immunoprecipitation from HEK293 lysates, Western blot; weaker than wild type.
In test [6] the target is T2, SMC1A. Kind of test: co-immunoprecipitation: anti-FLAG IP from lysates of HEK293 cells transfected with FLAG-STAG2 D193N, Western blot IB:SMC1 (endogenous SMC1).

These are yes or no findings as the source states them, for the method shown. Binding seen in cells or lysates may run through a third protein. Some binding calls cover weakened binding; strength is not graded here. Where a sequence is shown, tags or fusion partners need not be part of it.

B1: FLAG-tagged wild-type STAG3 (protein, human, UniProt Q9UJ98 1-1225, looked up, not shown: small tags and cut ends)
chain: MSSPLQRAVGDTKRALSASSSSSASLPFDDRDSNHTSEGNGDSLLADEDTDFEDSLNRNVKKRAAKRPPKTTPVAKHPKKGSRVVHRHSRKQSEPPANDLFNAVKAAKSDMQSLVDEWLDSYKQDQDAGFLELVNFFIQSCGCKGIVTPEMFKKMSNSEIIQHLTEQFNEDSGDYPLIAPGPSWKKFQGSFCEFVRTLVCQCQYSLLYDGFPMDDLISLLTGLSDSQVRAFRHTSTLAAMKLMTSLVKVALQLSVHQDNNQRQYEAERNKGPGQRAPERLESLLEKRKELQEHQEEIEGMMNALFRGVFVHRYRDVLPEIRAICIEEIGCWMQSYSTSFLTDSYLKYIGWTLHDKHREVRLKCVKALKGLYGNRDLTTRLELFTSRFKDRMVSMVMDREYDVAVEAVRLLILILKNMEGVLTDADCESVYPVVYASHRGLASAAGEFLYWKLFYPECEIRMMGGREQRQSPGAQRTFFQLLLSFFVESELHDHAAYLVDSLWDCAGARLKDWEGLTSLLLEKDQNLGDVQESTLIEILVSSARQASEGHPPVGRVTGRKGLTSKERKTQADDRVKLTEHLIPLLPQLLAKFSADAEKVTPLLQLLSCFDLHIYCTGRLEKHLELFLQQLQEVVVKHAEPAVLEAGAHALYLLCNPEFTFFSRADFARSQLVDLLTDRFQQELEELLQSSFLDEDEVYNLAATLKRLSAFYNTHDLTRWELYEPCCQLLQKAVDTGEVPHQVILPALTLVYFSILWTLTHISKSDASQKQLSSLRDRMVAFCELCQSCLSDVDTEIQEQAFVLLSDLLLIFSPQMIVGGRDFLRPLVFFPEATLQSELASFLMDHVFIQPGDLGSGDSQEDHLQIERLHQRRRLLAGFCKLLLYGVLEMDAASDVFKHYNKFYNDYGDIIKETLTRARQIDRSHCSRILLLSLKQLYTELLQEHGPQGLNELPAFIEMRDLARRFALSFGPQQLQNRDLVVMLHKEGIQFSLSELPPAGSSNQPPNLAFLELLSEFSPRLFHQDKQLLLSYLEKCLQHVSQAPGHPWGPVTTYCHSLSPVENTAETSPQVLPSSKRRRVEGPAKPNREDVSSSQEESLQLNSIPPTPTLTSTAVKSRQPLWGLKEMEEEDGSELDFAQGQPVAGTERSRFLGPQYFQTPHNPSGPGLGNQLMRLSLMEEDEEEELEIQDESNEERQDTDMQASSYSSTSERGLDLLDSTELDIEDF
Take B1: the binding entry in the test with RAD21 [1] and with RAD21 [2] was “binds” each time.

B2: FLAG-tagged wild-type STAG2 (protein, human, UniProt Q8N3U4 1-1231, looked up, not shown: small tags and cut ends)
chain: MIAAPEIPTDFNLLQESETHFSSDTDFEDIEGKNQKQGKGKTCKKGKKGPAEKGKGGNGGGKPPSGPNRMNGHHQQNGVENMMLFEVVKMGKSAMQSVVDDWIESYKHDRDIALLDLINFFIQCSGCKGVVTAEMFRHMQNSEIIRKMTEEFDEDSGDYPLTMAGPQWKKFKSSFCEFIGVLVRQCQYSIIYDEYMMDTVISLLTGLSDSQVRAFRHTSTLAAMKLMTALVNVALNLSINMDNTQRQYEAERNKMIGKRANERLELLLQKRKELQENQDEIENMMNAIFKGVFVHRYRDAIAEIRAICIEEIGIWMKMYSDAFLNDSYLKYVGWTMHDKQGEVRLKCLTALQGLYYNKELNSKLELFTSRFKDRIVSMTLDKEYDVAVQAIKLLTLVLQSSEEVLTAEDCENVYHLVYSAHRPVAVAAGEFLYKKLFSRRDPEEDGMMKRRGRQGPNANLVKTLVFFFLESELHEHAAYLVDSMWDCATELLKDWECMNSLLLEEPLSGEEALTDRQESALIEIMLCTIRQAAECHPPVGRGTGKRVLTAKEKKTQLDDRTKITELFAVALPQLLAKYSVDAEKVTNLLQLPQYFDLEIYTTGRLEKHLDALLRQIRNIVEKHTDTDVLEACSKTYHALCNEEFTIFNRVDISRSQLIDELADKFNRLLEDFLQEGEEPDEDDAYQVLSTLKRITAFHNAHDLSKWDLFACNYKLLKTGIENGDMPEQIVIHALQCTHYVILWQLAKITESSSTKEDLLRLKKQMRVFCQICQHYLTNVNTTVKEQAFTILCDILMIFSHQIMSGGRDMLEPLVYTPDSSLQSELLSFILDHVFIEQDDDNNSADGQQEDEASKIEALHKRRNLLAAFCKLIVYTVVEMNTAADIFKQYMKYYNDYGDIIKETMSKTRQIDKIQCAKTLILSLQQLFNEMIQENGYNFDRSSSTFSGIKELARRFALTFGLDQLKTREAIAMLHKDGIEFAFKEPNPQGESHPPLNLAFLDILSEFSSKLLRQDKRTVYVYLEKFMTFQMSLRREDVWLPLMSYRNSLLAGGDDDTMSVISGISSRGSTVRSKKSKPSTGKRKVVEGMQLSLTEESSSSDSMWLSREQTLHTPVMMQTPQLTSTIMREPKRLRPEDSFMSVYPMQTEHHQTPLDYNRRGTSLMEDDEEPIVEDVMMSSEGRIEDLNEGMDFDTMDIDLPPSKNRRERTELKPDFFDPASIMDESVLGVSMF
With B2, the binding result in the test with SMC1A [3] and in the test with SMC1A [4] was “binds” each time.

B3: FLAG-tagged STAG2 Asp193Asn mutant (protein, human, UniProt Q8N3U4 1-1231, looked up, not shown: small tags and cut ends)
chain: MIAAPEIPTDFNLLQESETHFSSDTDFEDIEGKNQKQGKGKTCKKGKKGPAEKGKGGNGGGKPPSGPNRMNGHHQQNGVENMMLFEVVKMGKSAMQSVVDDWIESYKHDRDIALLDLINFFIQCSGCKGVVTAEMFRHMQNSEIIRKMTEEFDEDSGDYPLTMAGPQWKKFKSSFCEFIGVLVRQCQYSIIYNEYMMDTVISLLTGLSDSQVRAFRHTSTLAAMKLMTALVNVALNLSINMDNTQRQYEAERNKMIGKRANERLELLLQKRKELQENQDEIENMMNAIFKGVFVHRYRDAIAEIRAICIEEIGIWMKMYSDAFLNDSYLKYVGWTMHDKQGEVRLKCLTALQGLYYNKELNSKLELFTSRFKDRIVSMTLDKEYDVAVQAIKLLTLVLQSSEEVLTAEDCENVYHLVYSAHRPVAVAAGEFLYKKLFSRRDPEEDGMMKRRGRQGPNANLVKTLVFFFLESELHEHAAYLVDSMWDCATELLKDWECMNSLLLEEPLSGEEALTDRQESALIEIMLCTIRQAAECHPPVGRGTGKRVLTAKEKKTQLDDRTKITELFAVALPQLLAKYSVDAEKVTNLLQLPQYFDLEIYTTGRLEKHLDALLRQIRNIVEKHTDTDVLEACSKTYHALCNEEFTIFNRVDISRSQLIDELADKFNRLLEDFLQEGEEPDEDDAYQVLSTLKRITAFHNAHDLSKWDLFACNYKLLKTGIENGDMPEQIVIHALQCTHYVILWQLAKITESSSTKEDLLRLKKQMRVFCQICQHYLTNVNTTVKEQAFTILCDILMIFSHQIMSGGRDMLEPLVYTPDSSLQSELLSFILDHVFIEQDDDNNSADGQQEDEASKIEALHKRRNLLAAFCKLIVYTVVEMNTAADIFKQYMKYYNDYGDIIKETMSKTRQIDKIQCAKTLILSLQQLFNEMIQENGYNFDRSSSTFSGIKELARRFALTFGLDQLKTREAIAMLHKDGIEFAFKEPNPQGESHPPLNLAFLDILSEFSSKLLRQDKRTVYVYLEKFMTFQMSLRREDVWLPLMSYRNSLLAGGDDDTMSVISGISSRGSTVRSKKSKPSTGKRKVVEGMQLSLTEESSSSDSMWLSREQTLHTPVMMQTPQLTSTIMREPKRLRPEDSFMSVYPMQTEHHQTPLDYNRRGTSLMEDDEEPIVEDVMMSSEGRIEDLNEGMDFDTMDIDLPPSKNRRERTELKPDFFDPASIMDESVLGVSMF
B3: the binding entry with SMC1A [5] and with SMC1A [6] was “binds” each time.
